Compound in the test: CCc1cnccc1C(=O)Nc1cc2c(cc1F)NC(=O)CC2
Briefly: melting temperature shift (DMSO Tm minus MBE1-treated Tm) in cellular thermal proteome profiling; higher = less thermal stabilization by MBE1 (negative = stabilized by MBE1). Conditions: A375.

Amino acid sequences for entries named in this document (tags omitted). A change or cut given only in a name is not applied to a line headed by its entry.
UniProt O00515: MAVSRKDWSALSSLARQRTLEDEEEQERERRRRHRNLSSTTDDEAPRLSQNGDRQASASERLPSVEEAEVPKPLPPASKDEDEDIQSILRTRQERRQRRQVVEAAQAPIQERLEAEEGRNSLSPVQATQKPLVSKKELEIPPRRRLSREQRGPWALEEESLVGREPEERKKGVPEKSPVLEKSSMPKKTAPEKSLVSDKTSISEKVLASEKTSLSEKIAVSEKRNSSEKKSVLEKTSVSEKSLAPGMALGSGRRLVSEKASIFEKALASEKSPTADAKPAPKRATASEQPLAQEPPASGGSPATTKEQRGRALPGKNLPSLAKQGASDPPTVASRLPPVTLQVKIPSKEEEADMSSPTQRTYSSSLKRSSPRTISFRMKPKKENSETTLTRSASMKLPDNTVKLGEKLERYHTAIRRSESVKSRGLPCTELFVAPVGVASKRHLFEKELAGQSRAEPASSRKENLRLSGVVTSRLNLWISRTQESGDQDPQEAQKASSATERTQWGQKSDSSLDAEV
UniProt O43295: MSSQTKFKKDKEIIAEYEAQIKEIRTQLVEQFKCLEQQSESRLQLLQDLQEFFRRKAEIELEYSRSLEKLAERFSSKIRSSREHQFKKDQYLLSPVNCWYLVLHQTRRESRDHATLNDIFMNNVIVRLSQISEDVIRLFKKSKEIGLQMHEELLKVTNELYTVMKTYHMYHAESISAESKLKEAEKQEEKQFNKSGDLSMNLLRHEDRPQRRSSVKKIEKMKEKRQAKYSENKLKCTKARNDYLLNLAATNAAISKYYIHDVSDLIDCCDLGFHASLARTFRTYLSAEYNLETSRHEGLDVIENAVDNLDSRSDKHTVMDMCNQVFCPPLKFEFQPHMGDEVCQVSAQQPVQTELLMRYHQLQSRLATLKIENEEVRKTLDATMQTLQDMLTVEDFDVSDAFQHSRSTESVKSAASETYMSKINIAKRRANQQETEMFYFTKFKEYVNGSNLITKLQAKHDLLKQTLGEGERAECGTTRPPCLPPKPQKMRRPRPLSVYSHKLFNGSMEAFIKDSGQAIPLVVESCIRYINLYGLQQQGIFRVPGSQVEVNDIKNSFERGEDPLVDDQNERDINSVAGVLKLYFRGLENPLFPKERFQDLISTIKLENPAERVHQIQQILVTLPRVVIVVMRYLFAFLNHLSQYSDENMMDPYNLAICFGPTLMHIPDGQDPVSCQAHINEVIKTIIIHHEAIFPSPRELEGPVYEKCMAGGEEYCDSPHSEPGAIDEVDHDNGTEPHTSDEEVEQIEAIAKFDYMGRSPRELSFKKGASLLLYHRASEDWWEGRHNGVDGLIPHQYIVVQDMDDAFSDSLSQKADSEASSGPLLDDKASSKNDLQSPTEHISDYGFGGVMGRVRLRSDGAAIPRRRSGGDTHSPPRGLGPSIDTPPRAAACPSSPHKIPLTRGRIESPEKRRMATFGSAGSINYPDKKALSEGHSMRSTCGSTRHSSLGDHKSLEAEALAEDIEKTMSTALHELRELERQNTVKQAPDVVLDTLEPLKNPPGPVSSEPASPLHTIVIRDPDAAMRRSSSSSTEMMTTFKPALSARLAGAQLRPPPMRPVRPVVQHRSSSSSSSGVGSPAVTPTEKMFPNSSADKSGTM
UniProt O14744, whole entry: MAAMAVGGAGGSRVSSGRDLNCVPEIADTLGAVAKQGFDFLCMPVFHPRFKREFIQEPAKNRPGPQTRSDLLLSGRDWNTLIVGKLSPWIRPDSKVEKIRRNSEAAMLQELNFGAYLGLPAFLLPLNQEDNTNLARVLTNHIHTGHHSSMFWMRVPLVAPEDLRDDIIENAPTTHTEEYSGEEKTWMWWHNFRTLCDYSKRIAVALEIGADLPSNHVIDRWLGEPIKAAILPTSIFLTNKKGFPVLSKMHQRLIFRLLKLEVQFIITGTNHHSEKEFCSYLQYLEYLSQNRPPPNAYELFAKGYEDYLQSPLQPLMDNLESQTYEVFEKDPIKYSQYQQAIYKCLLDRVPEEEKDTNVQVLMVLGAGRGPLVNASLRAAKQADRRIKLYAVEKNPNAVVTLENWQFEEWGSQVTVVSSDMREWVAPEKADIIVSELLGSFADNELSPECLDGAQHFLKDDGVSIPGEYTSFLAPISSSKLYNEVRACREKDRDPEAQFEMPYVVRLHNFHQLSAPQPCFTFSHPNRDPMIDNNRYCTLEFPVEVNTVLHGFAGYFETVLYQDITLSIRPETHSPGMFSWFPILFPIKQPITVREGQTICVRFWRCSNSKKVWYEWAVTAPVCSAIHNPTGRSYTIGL
UniProt O15460: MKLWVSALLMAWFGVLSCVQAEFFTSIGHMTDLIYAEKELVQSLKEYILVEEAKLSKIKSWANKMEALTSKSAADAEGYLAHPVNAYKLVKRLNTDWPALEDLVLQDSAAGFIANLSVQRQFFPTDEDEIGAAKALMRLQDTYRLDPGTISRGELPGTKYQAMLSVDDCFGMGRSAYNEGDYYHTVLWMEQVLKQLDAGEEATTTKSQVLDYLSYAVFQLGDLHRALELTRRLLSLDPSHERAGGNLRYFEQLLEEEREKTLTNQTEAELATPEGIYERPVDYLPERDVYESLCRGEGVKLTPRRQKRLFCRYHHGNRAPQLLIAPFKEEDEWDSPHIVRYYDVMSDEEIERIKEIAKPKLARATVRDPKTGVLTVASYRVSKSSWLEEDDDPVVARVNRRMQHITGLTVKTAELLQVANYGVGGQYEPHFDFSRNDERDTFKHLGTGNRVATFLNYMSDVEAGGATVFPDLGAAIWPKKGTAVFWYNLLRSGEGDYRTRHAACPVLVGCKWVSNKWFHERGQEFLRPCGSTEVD
UniProt O14657: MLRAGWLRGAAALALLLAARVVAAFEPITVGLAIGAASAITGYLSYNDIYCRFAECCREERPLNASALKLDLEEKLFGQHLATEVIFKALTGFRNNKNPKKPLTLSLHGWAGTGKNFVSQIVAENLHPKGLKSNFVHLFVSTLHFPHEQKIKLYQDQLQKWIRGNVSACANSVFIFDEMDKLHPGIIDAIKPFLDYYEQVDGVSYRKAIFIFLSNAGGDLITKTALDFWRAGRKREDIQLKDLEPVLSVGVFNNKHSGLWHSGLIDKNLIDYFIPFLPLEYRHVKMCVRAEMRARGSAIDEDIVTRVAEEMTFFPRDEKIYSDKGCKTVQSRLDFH
UniProt O14639: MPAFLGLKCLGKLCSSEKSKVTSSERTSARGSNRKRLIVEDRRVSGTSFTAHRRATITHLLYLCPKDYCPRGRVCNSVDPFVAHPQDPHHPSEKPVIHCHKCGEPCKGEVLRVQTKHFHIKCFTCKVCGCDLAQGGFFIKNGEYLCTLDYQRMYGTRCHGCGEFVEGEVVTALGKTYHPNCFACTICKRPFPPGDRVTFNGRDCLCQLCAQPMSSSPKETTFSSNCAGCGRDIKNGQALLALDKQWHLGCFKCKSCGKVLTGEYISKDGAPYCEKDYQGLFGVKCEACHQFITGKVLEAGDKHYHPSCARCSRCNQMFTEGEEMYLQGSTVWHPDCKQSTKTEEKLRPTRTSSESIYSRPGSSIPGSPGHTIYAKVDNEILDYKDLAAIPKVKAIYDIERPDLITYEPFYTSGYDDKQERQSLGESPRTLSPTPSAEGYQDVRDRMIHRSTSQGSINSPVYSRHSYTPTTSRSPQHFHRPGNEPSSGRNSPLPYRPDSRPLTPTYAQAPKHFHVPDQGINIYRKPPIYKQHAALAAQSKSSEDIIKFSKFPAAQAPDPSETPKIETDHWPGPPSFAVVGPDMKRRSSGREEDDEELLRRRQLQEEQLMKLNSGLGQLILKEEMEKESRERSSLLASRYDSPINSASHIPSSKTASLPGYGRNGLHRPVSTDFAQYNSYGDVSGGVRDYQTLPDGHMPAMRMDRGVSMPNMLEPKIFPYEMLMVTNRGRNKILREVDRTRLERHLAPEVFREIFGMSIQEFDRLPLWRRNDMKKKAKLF
UniProt O15021: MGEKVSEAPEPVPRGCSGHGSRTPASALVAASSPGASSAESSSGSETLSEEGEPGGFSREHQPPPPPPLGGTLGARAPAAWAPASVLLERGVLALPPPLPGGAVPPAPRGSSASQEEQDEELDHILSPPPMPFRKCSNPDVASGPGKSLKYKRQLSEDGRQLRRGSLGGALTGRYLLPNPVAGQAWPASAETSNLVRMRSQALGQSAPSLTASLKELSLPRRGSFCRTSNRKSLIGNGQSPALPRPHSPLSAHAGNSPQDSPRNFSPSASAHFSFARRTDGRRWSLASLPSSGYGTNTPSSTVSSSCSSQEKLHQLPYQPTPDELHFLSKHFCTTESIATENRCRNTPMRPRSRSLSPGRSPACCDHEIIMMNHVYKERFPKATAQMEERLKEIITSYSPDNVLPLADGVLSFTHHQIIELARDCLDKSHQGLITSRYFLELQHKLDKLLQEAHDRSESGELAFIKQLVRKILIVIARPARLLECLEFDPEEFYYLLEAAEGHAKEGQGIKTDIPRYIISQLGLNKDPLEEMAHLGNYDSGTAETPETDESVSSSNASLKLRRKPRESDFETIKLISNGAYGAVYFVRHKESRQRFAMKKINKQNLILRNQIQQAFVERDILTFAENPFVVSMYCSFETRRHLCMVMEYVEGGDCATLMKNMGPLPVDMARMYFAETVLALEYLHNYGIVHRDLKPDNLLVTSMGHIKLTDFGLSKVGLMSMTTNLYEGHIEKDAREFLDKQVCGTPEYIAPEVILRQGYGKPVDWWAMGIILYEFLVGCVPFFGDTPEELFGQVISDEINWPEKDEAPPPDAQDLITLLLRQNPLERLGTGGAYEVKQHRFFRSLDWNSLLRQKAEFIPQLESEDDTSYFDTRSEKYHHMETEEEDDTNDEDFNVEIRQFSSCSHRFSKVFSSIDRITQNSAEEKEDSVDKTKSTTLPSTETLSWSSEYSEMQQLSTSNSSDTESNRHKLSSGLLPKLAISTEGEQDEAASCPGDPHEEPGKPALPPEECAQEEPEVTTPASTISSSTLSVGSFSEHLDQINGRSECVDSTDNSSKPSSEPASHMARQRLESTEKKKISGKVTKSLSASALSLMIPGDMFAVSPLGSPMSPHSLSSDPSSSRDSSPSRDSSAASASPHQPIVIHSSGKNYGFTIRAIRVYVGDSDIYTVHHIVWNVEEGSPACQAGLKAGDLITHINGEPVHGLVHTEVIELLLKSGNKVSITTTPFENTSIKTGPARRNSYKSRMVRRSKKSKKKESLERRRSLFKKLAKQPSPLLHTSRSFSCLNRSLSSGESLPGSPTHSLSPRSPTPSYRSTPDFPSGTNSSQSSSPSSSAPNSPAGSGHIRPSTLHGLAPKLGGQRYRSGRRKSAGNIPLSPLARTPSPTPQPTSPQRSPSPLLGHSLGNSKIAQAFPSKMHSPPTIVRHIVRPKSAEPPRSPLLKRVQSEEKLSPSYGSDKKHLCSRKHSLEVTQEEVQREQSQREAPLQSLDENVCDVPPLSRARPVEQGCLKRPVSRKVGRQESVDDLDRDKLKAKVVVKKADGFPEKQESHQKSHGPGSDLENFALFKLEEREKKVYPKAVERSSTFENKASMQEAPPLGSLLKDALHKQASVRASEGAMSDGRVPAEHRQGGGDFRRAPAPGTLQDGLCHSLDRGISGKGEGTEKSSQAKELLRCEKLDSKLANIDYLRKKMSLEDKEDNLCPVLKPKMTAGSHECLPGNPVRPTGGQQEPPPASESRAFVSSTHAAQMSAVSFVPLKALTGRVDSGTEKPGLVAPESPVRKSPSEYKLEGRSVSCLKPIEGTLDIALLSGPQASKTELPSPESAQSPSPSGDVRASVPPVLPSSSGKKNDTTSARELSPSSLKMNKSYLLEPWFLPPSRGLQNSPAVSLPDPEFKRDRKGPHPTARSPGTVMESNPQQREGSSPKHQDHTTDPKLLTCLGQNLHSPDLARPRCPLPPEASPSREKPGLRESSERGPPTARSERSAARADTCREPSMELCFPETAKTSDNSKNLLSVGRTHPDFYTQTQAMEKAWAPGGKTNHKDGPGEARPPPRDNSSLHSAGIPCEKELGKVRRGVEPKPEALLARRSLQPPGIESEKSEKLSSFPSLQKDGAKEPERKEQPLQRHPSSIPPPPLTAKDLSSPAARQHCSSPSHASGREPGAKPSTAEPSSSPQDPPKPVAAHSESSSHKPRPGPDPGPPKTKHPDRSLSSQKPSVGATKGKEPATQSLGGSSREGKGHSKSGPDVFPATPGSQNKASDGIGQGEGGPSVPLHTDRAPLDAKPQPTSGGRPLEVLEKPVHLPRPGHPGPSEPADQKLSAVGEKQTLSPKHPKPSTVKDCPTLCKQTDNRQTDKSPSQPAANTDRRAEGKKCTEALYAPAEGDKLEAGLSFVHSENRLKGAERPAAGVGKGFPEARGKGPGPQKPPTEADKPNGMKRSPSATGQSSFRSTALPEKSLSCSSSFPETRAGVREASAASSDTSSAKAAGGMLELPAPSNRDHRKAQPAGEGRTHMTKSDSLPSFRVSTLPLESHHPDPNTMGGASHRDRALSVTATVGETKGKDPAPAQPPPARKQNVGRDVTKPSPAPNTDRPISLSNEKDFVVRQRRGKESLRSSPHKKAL

The other results are listed elsewhere or left out. This is a noisy data set.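 Tm was set to 64 °C where no melting was found, and many curves are irregular.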

For GPAA1 (UniProt O43292), the melting temperature shift was -0.545 °C (MBE1 concentration: 100 nM) and 0.818 °C (MBE1 concentration: 1 uM).

Take UniProt O15554: the melting temperature shift runs as follows: (MBE1 concentration: 100 nM) -3.23 °C; (MBE1 concentration: 1 uM) -2.03 °C.

In the case of UniProt A8MVW0, the melting temperature shift by setting is: (MBE1 concentration: 100 nM) 0.501 °C; (MBE1 concentration: 1 uM) 2.18 °C.

In the case of UniProt O00515, the melting temperature shift is -0.657 °C (MBE1 concentration: 100 nM) and 0.0672 °C (MBE1 concentration: 1 uM).

For the target UniProt O43295, the melting temperature shift is, setting by setting: (MBE1 concentration: 100 nM) 0.116 °C; (MBE1 concentration: 1 uM) -0.979 °C.

For the target INPPL1 (UniProt O15357), the melting temperature shift reads like this: (MBE1 concentration: 100 nM) -0.739 °C; (MBE1 concentration: 1 uM) -0.875 °C.

For OPLAH (UniProt O14841), the melting temperature shift (MBE1 concentration: 100 nM) was -0.0427 °C and the melting temperature shift (MBE1 concentration: 1 uM) amounted to 0.0977 °C.

As to GIPC1 (UniProt O14908), the melting temperature shift by setting is: (MBE1 concentration: 100 nM) -0.922 °C; (MBE1 concentration: 1 uM) -0.861 °C.

On to BTAF1 (UniProt O14981), for which the melting temperature shift was 0.458 °C (MBE1 concentration: 100 nM) and -0.202 °C (MBE1 concentration: 1 uM).

For RBFOX2 (UniProt O43251), the melting temperature shift was -0.55 °C (MBE1 concentration: 100 nM) and -0.00611 °C (MBE1 concentration: 1 uM).

As to PRMT5 (UniProt O14744), the melting temperature shift is, setting by setting: (MBE1 concentration: 100 nM) -0.362 °C; (MBE1 concentration: 1 uM) 0.798 °C.

For the target NME4 (UniProt O00746), the melting temperature shift is, setting by setting: (MBE1 concentration: 100 nM) -1.11 °C; (MBE1 concentration: 1 uM) -2.65 °C.

Regarding ZSWIM8 (UniProt A7E2V4), the melting temperature shift by setting is: (MBE1 concentration: 100 nM) -1.75 °C; (MBE1 concentration: 1 uM) 0.0897 °C.

Regarding ARHGEF11 (UniProt O15085), the melting temperature shift (MBE1 concentration: 100 nM) is -0.414 °C and the melting temperature shift (MBE1 concentration: 1 uM) worked out at 0.0047 °C.

Turning to MIF4GD (UniProt A9UHW6), the melting temperature shift was -1.13 °C (MBE1 concentration: 100 nM) and 0.165 °C (MBE1 concentration: 1 uM).

As to UniProt O00391, the melting temperature shift (MBE1 concentration: 100 nM) was -2.05 °C and the melting temperature shift (MBE1 concentration: 1 uM) was -0.429 °C.

Turning to HNRNPDL (UniProt O14979), the melting temperature shift reads like this: (MBE1 concentration: 100 nM) -1.48 °C; (MBE1 concentration: 1 uM) 0.482 °C.

With PLXNB2 (UniProt O15031), the melting temperature shift by setting is: (MBE1 concentration: 100 nM) -0.865 °C; (MBE1 concentration: 1 uM) 0.336 °C.

Turning to IFIT3 (UniProt O14879), the melting temperature shift (MBE1 concentration: 100 nM) stood at 0 °C and the melting temperature shift (MBE1 concentration: 1 uM) was 0.428 °C.

On to AP5Z1 (UniProt O43299), for which the melting temperature shift is 2.42 °C (MBE1 concentration: 100 nM) and 0.171 °C (MBE1 concentration: 1 uM).

In the case of PIK3CD (UniProt O00329), the melting temperature shift (MBE1 concentration: 100 nM) is -1.19 °C and the melting temperature shift (MBE1 concentration: 1 uM) amounted to 3.33 °C.

Regarding P4HA2 (UniProt O15460), the melting temperature shift (MBE1 concentration: 100 nM) was -1.25 °C and the melting temperature shift (MBE1 concentration: 1 uM) is -0.51 °C.

Turning to ADAM10 (UniProt O14672), the melting temperature shift reads like this: (MBE1 concentration: 100 nM) -1.35 °C; (MBE1 concentration: 1 uM) -0.476 °C.

Consider TOR1B (UniProt O14657), for which the melting temperature shift (MBE1 concentration: 100 nM) is -1.37 °C and the melting temperature shift (MBE1 concentration: 1 uM) was found to be 0.597 °C.

As for SEC16A (UniProt O15027), the melting temperature shift is -0.79 °C (MBE1 concentration: 100 nM) and 0.16 °C (MBE1 concentration: 1 uM).

As to TNFRSF10B (UniProt O14763), the melting temperature shift is, setting by setting: (MBE1 concentration: 100 nM) -3 °C; (MBE1 concentration: 1 uM) -1.41 °C.

For UniProt O00213, the melting temperature shift is -1.16 °C (MBE1 concentration: 100 nM) and -0.569 °C (MBE1 concentration: 1 uM).

As to UQCRQ (UniProt O14949), the melting temperature shift by setting is: (MBE1 concentration: 100 nM) -3.58 °C; (MBE1 concentration: 1 uM) -3.61 °C.

For UniProt O15054, the melting temperature shift is, setting by setting: (MBE1 concentration: 100 nM) -2.45 °C; (MBE1 concentration: 1 uM) 1.81 °C.

On to ABLIM1 (UniProt O14639), for which the melting temperature shift runs as follows: (MBE1 concentration: 100 nM) -1.45 °C; (MBE1 concentration: 1 uM) 0.861 °C.

On to UniProt O15530, for which the melting temperature shift (MBE1 concentration: 100 nM) was -0.293 °C and the melting temperature shift (MBE1 concentration: 1 uM) amounted to 0.0794 °C.

On to UniProt A6H8Y1, for which the melting temperature shift by setting is: (MBE1 concentration: 100 nM) 0.568 °C; (MBE1 concentration: 1 uM) 0.813 °C.

As for KIF3B (UniProt O15066), the melting temperature shift runs as follows: (MBE1 concentration: 100 nM) 0.989 °C; (MBE1 concentration: 1 uM) -0.0855 °C.

Consider AGPAT2 (UniProt O15120), for which the melting temperature shift reads like this: (MBE1 concentration: 100 nM) -0.482 °C; (MBE1 concentration: 1 uM) -0.202 °C.

On to UniProt O15021, for which the melting temperature shift was determined as 0.128 °C (MBE1 concentration: 100 nM) and 0.507 °C (MBE1 concentration: 1 uM).

The values are drawn from the supplement of paper PMC12595434, “Development of retinoid nuclear receptor pathway antagonists through targeting aldehyde dehydrogenase 1A3” (iScience, 2025).
